{
  "sequences": {"note": "Amino acid sequences for entries named in this document (tags omitted).", "UniProt Q9UKV8": "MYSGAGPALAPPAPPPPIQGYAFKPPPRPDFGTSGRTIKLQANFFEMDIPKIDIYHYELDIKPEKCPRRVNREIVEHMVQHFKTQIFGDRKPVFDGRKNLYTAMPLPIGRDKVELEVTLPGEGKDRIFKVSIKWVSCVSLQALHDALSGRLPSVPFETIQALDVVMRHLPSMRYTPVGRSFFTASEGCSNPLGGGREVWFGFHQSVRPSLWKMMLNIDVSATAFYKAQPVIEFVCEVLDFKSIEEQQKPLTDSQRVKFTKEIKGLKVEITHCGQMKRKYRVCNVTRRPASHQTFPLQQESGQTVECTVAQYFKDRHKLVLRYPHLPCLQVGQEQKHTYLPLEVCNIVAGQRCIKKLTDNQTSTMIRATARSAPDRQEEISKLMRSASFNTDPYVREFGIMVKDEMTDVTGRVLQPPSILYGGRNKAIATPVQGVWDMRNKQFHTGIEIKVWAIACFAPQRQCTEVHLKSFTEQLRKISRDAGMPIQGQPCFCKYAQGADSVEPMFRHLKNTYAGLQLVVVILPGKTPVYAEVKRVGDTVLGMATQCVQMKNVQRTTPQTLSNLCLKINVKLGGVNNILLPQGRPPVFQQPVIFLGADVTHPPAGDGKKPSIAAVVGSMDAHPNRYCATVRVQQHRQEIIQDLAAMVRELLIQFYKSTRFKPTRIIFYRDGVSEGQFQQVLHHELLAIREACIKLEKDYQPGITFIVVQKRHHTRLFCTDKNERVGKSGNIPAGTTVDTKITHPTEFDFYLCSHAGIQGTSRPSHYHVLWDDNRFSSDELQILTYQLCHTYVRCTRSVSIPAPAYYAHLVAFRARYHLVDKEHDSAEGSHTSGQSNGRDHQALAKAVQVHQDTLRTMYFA", "UniProt Q8NDV7": "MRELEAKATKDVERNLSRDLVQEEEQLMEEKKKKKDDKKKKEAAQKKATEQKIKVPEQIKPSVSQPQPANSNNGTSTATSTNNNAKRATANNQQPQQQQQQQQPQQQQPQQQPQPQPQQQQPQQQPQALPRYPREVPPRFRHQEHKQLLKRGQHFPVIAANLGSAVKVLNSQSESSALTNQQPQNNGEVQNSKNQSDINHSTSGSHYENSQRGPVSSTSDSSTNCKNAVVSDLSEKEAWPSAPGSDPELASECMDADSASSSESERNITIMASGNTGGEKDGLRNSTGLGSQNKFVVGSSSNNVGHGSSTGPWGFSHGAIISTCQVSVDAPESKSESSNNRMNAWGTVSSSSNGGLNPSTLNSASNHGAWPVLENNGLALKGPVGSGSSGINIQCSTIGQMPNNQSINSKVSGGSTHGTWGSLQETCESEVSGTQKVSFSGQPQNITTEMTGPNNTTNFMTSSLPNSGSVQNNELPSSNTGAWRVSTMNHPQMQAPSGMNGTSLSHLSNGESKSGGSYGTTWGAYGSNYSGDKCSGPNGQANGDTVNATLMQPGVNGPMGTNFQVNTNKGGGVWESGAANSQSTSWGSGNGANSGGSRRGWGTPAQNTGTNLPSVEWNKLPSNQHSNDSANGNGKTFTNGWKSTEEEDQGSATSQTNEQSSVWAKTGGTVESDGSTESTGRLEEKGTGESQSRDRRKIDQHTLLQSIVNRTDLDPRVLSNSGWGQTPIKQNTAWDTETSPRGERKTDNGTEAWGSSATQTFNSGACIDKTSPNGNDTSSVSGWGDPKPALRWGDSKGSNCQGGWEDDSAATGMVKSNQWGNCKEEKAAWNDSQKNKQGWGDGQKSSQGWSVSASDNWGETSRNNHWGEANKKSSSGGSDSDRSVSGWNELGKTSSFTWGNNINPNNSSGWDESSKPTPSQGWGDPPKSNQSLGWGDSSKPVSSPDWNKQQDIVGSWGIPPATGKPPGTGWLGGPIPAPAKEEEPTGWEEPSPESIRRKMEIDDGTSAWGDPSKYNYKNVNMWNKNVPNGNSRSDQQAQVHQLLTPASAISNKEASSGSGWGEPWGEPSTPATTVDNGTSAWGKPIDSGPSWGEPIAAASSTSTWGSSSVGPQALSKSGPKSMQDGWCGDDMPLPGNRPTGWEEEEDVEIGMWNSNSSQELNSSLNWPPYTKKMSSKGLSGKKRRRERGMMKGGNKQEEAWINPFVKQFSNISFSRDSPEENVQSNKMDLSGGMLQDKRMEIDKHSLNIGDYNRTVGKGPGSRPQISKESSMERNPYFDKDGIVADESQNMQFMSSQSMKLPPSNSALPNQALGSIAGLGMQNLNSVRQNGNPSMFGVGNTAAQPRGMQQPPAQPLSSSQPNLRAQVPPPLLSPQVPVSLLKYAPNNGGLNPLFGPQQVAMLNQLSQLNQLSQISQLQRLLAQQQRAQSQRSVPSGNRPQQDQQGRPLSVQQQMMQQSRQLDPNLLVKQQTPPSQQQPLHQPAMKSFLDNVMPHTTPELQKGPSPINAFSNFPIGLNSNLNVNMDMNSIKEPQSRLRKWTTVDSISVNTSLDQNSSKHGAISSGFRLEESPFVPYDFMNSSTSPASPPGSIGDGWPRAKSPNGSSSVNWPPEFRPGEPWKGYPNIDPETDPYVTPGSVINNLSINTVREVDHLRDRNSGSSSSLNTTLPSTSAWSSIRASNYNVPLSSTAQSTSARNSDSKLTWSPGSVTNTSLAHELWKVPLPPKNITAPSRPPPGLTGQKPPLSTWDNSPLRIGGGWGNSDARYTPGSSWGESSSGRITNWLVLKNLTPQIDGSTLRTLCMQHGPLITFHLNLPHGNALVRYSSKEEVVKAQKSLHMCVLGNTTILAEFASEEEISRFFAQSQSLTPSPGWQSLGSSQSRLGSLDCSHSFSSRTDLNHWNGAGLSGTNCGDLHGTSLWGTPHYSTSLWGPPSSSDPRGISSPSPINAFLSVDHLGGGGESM"},
  "source": "paper doi:10.1101/2024.03.07.583365",
  "biological_target": "Argonaute 2 (AGO2) (human (endogenous in HEK293, HEK293T, A549, SK-N-BE(2), MCF7)) (UniProt Q9UKV8)",
  "assay": "co-IP",
  "note": "No constants are given. Whether binding was seen depends on the method and setting. Binding seen in cells or lysates may run through a third protein. Some binding calls cover weakened binding; strength is not graded here.",
  "data": [
    {"substance": "TNRC6A (from UniProt Q8NDV7 1-1962)", "values": [
      {"measurement": "binding", "result": "binds"}
    ]}
  ]
}
